{"source": "PubChem BioAssay AID504784 (Drosophila RNAi Screening Center, 2011)", "test": "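Genome-wide knock-down for genes giving too much or too little stored lipid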 (primary screen)", "system": "Drosophila Kc167 embryonic cells", "knock-down reagent": "long dsRNA against Drosophila genes, about 250 ng dsRNA per well", "duration": "4 days", "treatment": "cells fed 400 µM oleic acid bound to BSA", "read-out": "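Microscope images give a droplet-to-nucleus area ratio, taken as log and converted to a screen-wide B-score; higher values mean greater lipid storage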", "direction": "droplet/nuclear area B-score: higher = more stored lipid (overstorage)", "note": "In all, the deposit lists about 17,000 reagents; shown is an unselected part of those that have a named target and a result. 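Each column is one replicate's B-score; the combined score over replicates was not deposited, so single values may mislead.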 Not all columns of the deposit are shown."}
{"gene":"ssx","dsRNA":"DRSC18492","droplet/nuclear area B-score, replicate 1":-0.399}
{"gene":"Obp56c (Odorant-binding protein 56c)","dsRNA":"DRSC06552","droplet/nuclear area B-score, replicate 1":0.504}
{"gene":"Obp56c (Odorant-binding protein 56c)","dsRNA":"DRSC22325","droplet/nuclear area B-score, replicate 1":0.129}
{"gene":"hiw (highwire)","dsRNA":"DRSC20338","droplet/nuclear area B-score, replicate 1":0.0275}
{"gene":"hiw (highwire)","dsRNA":"DRSC20339","droplet/nuclear area B-score, replicate 1":1.64}
{"gene":"CG1631","dsRNA":"DRSC20535","droplet/nuclear area B-score, replicate 1":0.303}
{"gene":"CG1572","dsRNA":"DRSC19686","droplet/nuclear area B-score, replicate 1":-0.8}
{"gene":"CG18731","dsRNA":"DRSC15377","droplet/nuclear area B-score, replicate 1":0.448}
{"gene":"Adck1 (aarF domain containing kinase 1)","dsRNA":"DRSC04394","droplet/nuclear area B-score, replicate 1":1.83}
{"gene":"TRAM","dsRNA":"DRSC18178","droplet/nuclear area B-score, replicate 1":-0.681}
{"gene":"TRAM","dsRNA":"DRSC18651","droplet/nuclear area B-score, replicate 1":0.0637}
{"gene":"or (orange)","dsRNA":"DRSC04329","droplet/nuclear area B-score, replicate 1":-1.23}
{"gene":"MED22 (Mediator complex subunit 22)","dsRNA":"DRSC18175","droplet/nuclear area B-score, replicate 1":-0.14}
{"gene":"Srrm1 (Serine-arginine repetitive matrix 1)","dsRNA":"DRSC09835","droplet/nuclear area B-score, replicate 1":-1.45}
{"gene":"CG5167","dsRNA":"DRSC15728","droplet/nuclear area B-score, replicate 1":0.0929}
{"gene":"asRNA:CR31084 (antisense RNA:CR31084)","dsRNA":"DRSC21649","droplet/nuclear area B-score, replicate 1":0.632}
{"gene":"ppk8 (pickpocket 8)","dsRNA":"DRSC17269","droplet/nuclear area B-score, replicate 1":-0.848}
{"gene":"RpS27 (Ribosomal protein S27)","dsRNA":"DRSC14244","droplet/nuclear area B-score, replicate 1":2.67}
{"gene":"Ork1 (Open rectifier K[+] channel 1)","dsRNA":"DRSC20266","droplet/nuclear area B-score, replicate 1":1.62}
{"gene":"CG7376","dsRNA":"DRSC10829","droplet/nuclear area B-score, replicate 1":-1.33}
{"gene":"RpLP0 (Ribosomal protein LP0)","dsRNA":"DRSC11878","droplet/nuclear area B-score, replicate 1":5.69}
{"gene":"RpLP0 (Ribosomal protein LP0)","dsRNA":"DRSC22110","droplet/nuclear area B-score, replicate 1":-0.597}
{"gene":"Prosbeta4R2 (Proteasome beta4 subunit-related 2)","dsRNA":"DRSC00503","droplet/nuclear area B-score, replicate 1":-0.0131}
{"gene":"CG32027 (retired record)","dsRNA":"DRSC09571","droplet/nuclear area B-score, replicate 1":-0.358}
{"gene":"nAChRalpha5 (nicotinic Acetylcholine Receptor alpha5)","dsRNA":"DRSC01946","droplet/nuclear area B-score, replicate 1":0.107}
{"gene":"nAChRalpha5 (nicotinic Acetylcholine Receptor alpha5)","dsRNA":"DRSC01947","droplet/nuclear area B-score, replicate 1":-0.996}
{"gene":"nAChRalpha5 (nicotinic Acetylcholine Receptor alpha5)","dsRNA":"DRSC22785","droplet/nuclear area B-score, replicate 1":4.36}
{"gene":"Sgs8 (Salivary gland secretion 8)","dsRNA":"DRSC11282","droplet/nuclear area B-score, replicate 1":-0.029}
{"gene":"Spred (Sprouty-related protein with EVH-1 domain)","dsRNA":"DRSC05976","droplet/nuclear area B-score, replicate 1":-1.03}
{"gene":"CG32795","dsRNA":"DRSC18609","droplet/nuclear area B-score, replicate 1":-0.852}
{"gene":"CG32795","dsRNA":"DRSC18610","droplet/nuclear area B-score, replicate 1":0.0175}
{"gene":"CG15035","dsRNA":"DRSC17967","droplet/nuclear area B-score, replicate 1":-0.338}
{"gene":"dnt (doughnut on 2)","dsRNA":"DRSC03522","droplet/nuclear area B-score, replicate 1":-0.59}
{"gene":"MstProx","dsRNA":"DRSC12458","droplet/nuclear area B-score, replicate 1":0.583}
{"gene":"MstProx","dsRNA":"DRSC12601","droplet/nuclear area B-score, replicate 1":2.62}
{"gene":"CG12516","dsRNA":"DRSC14524","droplet/nuclear area B-score, replicate 1":-0.335}
{"gene":"fwe (flower)","dsRNA":"DRSC10594","droplet/nuclear area B-score, replicate 1":1.48}
{"gene":"fwe (flower)","dsRNA":"DRSC21400","droplet/nuclear area B-score, replicate 1":0.595}
{"gene":"mdlc (midlife crisis)","dsRNA":"DRSC15690","droplet/nuclear area B-score, replicate 1":0.00947}
{"gene":"NimB5 (Nimrod B5)","dsRNA":"DRSC01885","droplet/nuclear area B-score, replicate 1":-1.29}
{"gene":"Dyrk3 (Dual-specificity tyrosine phosphorylation-regulated kinase 3)","dsRNA":"DRSC21055","droplet/nuclear area B-score, replicate 1":1.17}
{"gene":"CG12725","dsRNA":"DRSC19501","droplet/nuclear area B-score, replicate 1":-0.00324}
{"gene":"MESK2 (Misexpression suppressor of KSR 2)","dsRNA":"DRSC04258","droplet/nuclear area B-score, replicate 1":0.954}
{"gene":"MED15 (Mediator complex subunit 15)","dsRNA":"DRSC00267","droplet/nuclear area B-score, replicate 1":2.68}
{"gene":"Takl2 (Tak1-like 2)","dsRNA":"DRSC15650","droplet/nuclear area B-score, replicate 1":-1.94}
{"gene":"Osi18 (Osiris 18)","dsRNA":"DRSC12181","droplet/nuclear area B-score, replicate 1":1.75}
{"gene":"CG13032","dsRNA":"DRSC09912","droplet/nuclear area B-score, replicate 1":0.0405}
{"gene":"STUB1 (STIP1 homology and U-box containing protein 1)","dsRNA":"DRSC03282","droplet/nuclear area B-score, replicate 1":-1.08}
{"gene":"Msr-110","dsRNA":"DRSC11227","droplet/nuclear area B-score, replicate 1":0.861}
{"gene":"CG12853","dsRNA":"DRSC06193","droplet/nuclear area B-score, replicate 1":-1.08}
{"gene":"pch2 (pachytene checkpoint 2)","dsRNA":"DRSC14368","droplet/nuclear area B-score, replicate 1":5.05}

Ordered by “droplet/nuclear area B-score, replicate 1” (highest first): 3 of the entries above.
{"gene":"nAChRalpha5 (nicotinic Acetylcholine Receptor alpha5)","dsRNA":"DRSC01946","droplet/nuclear area B-score, replicate 1":0.107}
{"gene":"CG32027 (retired record)","dsRNA":"DRSC09571","droplet/nuclear area B-score, replicate 1":-0.358}
{"gene":"nAChRalpha5 (nicotinic Acetylcholine Receptor alpha5)","dsRNA":"DRSC01947","droplet/nuclear area B-score, replicate 1":-0.996}
